Results are given in words; binding and its absence hold for the method and conditions named. Some binding calls cover weakened binding; strength is not graded here.
B1: anti-human BCMA HCAb monoclonal antibody PR001046 (antibody, human IgG1, V domains shown)
VH: EVQLVETGGGLIQPGGSLRLSCAASGFTVSDNYMTWVRQAPGKGLEWVSVIFSGGNTYYADSVKGRFTISRDNAKNTLYLQMNSLRAEDTALYYCARRNYDDTRGTDVFDIWGQGTMVTVSS
B2: positive control 1, PR000274 (anti-BCMA antibody CA8-J6M0 hIgG1) (antibody, V domains shown)
VH: QVQLVQSGAEVKKPGSSVKVSCKASGGTFSNYWMHWVRQAPGQGLEWMGATYRGHSDTYYNQKFKGRVTITADKSTSTAYMELSSLRSEDTAVYYCARGAIYDGYDVLDNWGQGTLVTVSS
VL: DIQMTQSPSSLSASVGDRVTITCSASQDISNYLNWYQQKPGKAPKLLIYYTSNLHSGVPSRFSGSGSGTDFTLTISSLQPEDFATYYCQQYRKLPWTFGQGTKLEIKR

Experiments:
[1] = target: cynomolgus monkey BCMA on cells (HEK293T/cynoBCMA) (cynomolgus monkey); test: FACS on HEK293T cell strain overexpressing cynomolgus monkey BCMA [B]
[2] = target: cynomolgus monkey BCMA on cells (HEK293T/cynoBCMA) (cynomolgus monkey); test: FACS on HEK293T/cynoBCMA cells

| Binder | binding [1] | binding [2] |
| --- | --- | --- |
| B1 | binds | binds |
| B2 | binds | binds |
